Experimental data taken from publication PMC11479587.
These are yes or no findings as the source states them, for the method shown. Binding calls can cover weak binding; strength is not graded here.

Amino acid sequences for entries named in this document (tags omitted). A change or cut given only in a name is not applied to a line headed by its entry.
UniProt P10591: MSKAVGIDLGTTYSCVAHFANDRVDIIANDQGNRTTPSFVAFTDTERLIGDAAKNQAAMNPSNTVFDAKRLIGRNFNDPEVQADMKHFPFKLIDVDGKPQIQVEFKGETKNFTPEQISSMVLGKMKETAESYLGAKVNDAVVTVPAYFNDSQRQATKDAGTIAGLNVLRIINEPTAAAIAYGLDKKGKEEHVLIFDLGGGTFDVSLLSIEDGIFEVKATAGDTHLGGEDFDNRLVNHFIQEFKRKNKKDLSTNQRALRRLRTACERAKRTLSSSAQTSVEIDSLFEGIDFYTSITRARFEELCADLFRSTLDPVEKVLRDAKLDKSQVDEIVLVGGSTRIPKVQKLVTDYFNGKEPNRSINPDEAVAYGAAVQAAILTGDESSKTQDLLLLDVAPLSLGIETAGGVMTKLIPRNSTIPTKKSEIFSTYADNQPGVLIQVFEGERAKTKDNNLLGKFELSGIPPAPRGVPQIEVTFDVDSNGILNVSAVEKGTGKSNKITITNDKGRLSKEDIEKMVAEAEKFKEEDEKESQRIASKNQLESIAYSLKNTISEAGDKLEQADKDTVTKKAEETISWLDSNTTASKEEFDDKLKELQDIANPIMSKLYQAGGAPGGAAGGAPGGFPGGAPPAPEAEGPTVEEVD
UniProt P32589: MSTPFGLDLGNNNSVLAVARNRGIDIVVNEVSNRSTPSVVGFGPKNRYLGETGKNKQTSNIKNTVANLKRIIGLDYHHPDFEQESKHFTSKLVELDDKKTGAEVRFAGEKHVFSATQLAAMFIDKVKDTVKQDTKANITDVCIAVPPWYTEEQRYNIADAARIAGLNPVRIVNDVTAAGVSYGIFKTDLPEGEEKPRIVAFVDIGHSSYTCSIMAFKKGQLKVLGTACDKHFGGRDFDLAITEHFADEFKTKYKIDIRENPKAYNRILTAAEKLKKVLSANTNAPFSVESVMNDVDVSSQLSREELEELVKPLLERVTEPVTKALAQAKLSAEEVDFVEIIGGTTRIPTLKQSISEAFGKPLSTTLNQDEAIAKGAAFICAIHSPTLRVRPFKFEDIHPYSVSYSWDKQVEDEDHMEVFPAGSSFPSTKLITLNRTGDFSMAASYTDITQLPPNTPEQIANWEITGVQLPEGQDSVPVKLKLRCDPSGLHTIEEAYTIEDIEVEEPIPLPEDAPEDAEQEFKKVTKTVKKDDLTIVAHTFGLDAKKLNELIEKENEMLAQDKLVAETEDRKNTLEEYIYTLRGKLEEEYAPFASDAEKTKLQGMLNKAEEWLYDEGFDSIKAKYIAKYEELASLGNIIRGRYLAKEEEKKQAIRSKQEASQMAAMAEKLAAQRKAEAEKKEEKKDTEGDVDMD

Biological target: Ssa1 (yeast (S. cerevisiae)) (UniProt P10591)
Test: BLI; His-Sis1 (0.4 µM, to saturation) on the Ni-NTA sensor through the His6-SUMO tag; 1 µM Ssa1 with increasing concentrations of Sse1 or Sse1-2; buffer A with 5 mM ATP and 2 mM DTT; both purified

- binding: binds weakly
Substance: Sse1-2 variant (N572Y E575A) (from UniProt P32589)
